In PubChem BioAssay AID2685 (National Center for Advancing Translational Sciences (NCATS), 2010):
Out of some 320,000 compounds screened, about 2,100 (0.66%) were called active. Inconclusive results, whose numbers are uncertain, are shown with a selection of clear calls. Calls follow the shape of the dose curve; as a rule, active = well fitted inhibition curve with a large enough effect in the signal ratio, with a control signal flat (not every such curve was filed as active); inconclusive = small, poorly fitted or top-dose-only effect, or effect the other way, or a change in a side signal; inactive = flat fitted curve, though single readings scatter; the % refers to the signal ratio. Potencies of inconclusive entries are doubtful fits and often do not repeat.

Experiment: qHTS Assay for Lipid Storage Modulators in Drosophila S3 Cells
Settings: BODIPY lipid droplet fluorescence, 18-24 h, cells fed with added oleic acid; lipid storage change, negative = inhibition: at 46.1 µM (top of the series) unless noted
Method in brief: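 Drosophila S3 cells loaded with oleic acid (400 uM, as added) and compounds at several concentrations; lipid droplets imaged by 488-nm laser-scanning cytometry, 500–530 nm intensity and object ratio to cell channel. Percent activity normalized to 20 uM Triacsin C.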
% is scaled to controls: 0 for no effect and ±100 for the full control effect; potency is read from the fitted curve at half-maximal effect.

Row | SMILES | Potency | lipid storage change, negative = inhibition
1 | COc1ccc(C(=O)/C=C/c2ccc(OC)c(O)c2)c(F)c1 | inconclusive: 29.1 µM [falling, single point] | –
2 | CCC1(C)CC(CC(=O)O)(c2ccccc2OC)CCO1 (stereo unspecified) | active: 29.1 µM | –
3 | COCCn1c(SCC(=O)Nc2cc(C)on2)nc2ccccc21 | – | inconclusive: 7.27%
4 | COc1cc2c(cc1NC(=O)C1CCCO1)oc1ccccc12 (stereo unspecified) | inconclusive: 2.06 µM [activator, partial curve] | –
5 | CCOC(=O)C1CC(c2ccc(Cl)cc2)=NNC1=O (stereo unspecified) | – | inconclusive: 1.89%
6 | COc1ccc(Br)cc1C(=O)NC(=S)Nc1cc(-c2nc3ccccc3[nH]2)ccc1C | – | inconclusive: 18.8%
7 | COc1ccc(C(=O)NC2CC2)cc1OC1CCN(Cc2ccc(Cl)cc2)CC1 | – | inconclusive: 11.1%
8 | O=[N+]([O-])c1cccc(/C=N/NS(=O)(=O)c2ccccc2)c1 | – | inactive
9 | Cn1c(=O)n(C/C=C/c2ccccc2)c(=O)c2c1nc1n2CCCN1Cc1ccccc1 | – | inconclusive: 11.8%
10 | COc1ccc(C2CC(c3ccccc3)=NN2S(=O)(=O)c2ccc(C)cc2)c(OC)c1 (stereo unspecified) | inconclusive: 16.4 µM [activator, partial curve] | –
11 | O=[N+]([O-])c1ccc(-c2nc(=S)c3c(o2)CCCC3)cc1 | – | inconclusive: 5.93%
12 | CC(=O)NS(=O)(=O)c1ccc(NC(=O)C(Sc2ccccc2)c2ccccc2)cc1 (stereo unspecified) | – | inconclusive: 4.73%
13 | CCC(C)(C)NC(=O)C(c1cccc(OC)c1OC)N(Cc1ccc(OC)cc1)C(=O)CCC(=O)Nc1cc(C)on1 (stereo unspecified) | inconclusive: 1.84 µM [falling, full curve, poor fit] | –
14 | Cc1ccc(S(=O)(=O)NC(=O)NCCCN2CCOCC2)cc1 | – | inconclusive: -16.2%
15 | COc1ccc(OC)c(NC(=O)c2cccc(NC(=O)c3ccccc3)c2)c1 | inconclusive: 29.1 µM [falling, single point] | –
16 | Nc1c(-c2ccccc2)cnc2c(-c3ccccc3)cnn12 | inconclusive: 29.1 µM [activator, single point] | –
17 | Cc1ccc(CNC(=O)C2CCN(S(=O)(=O)c3c(C)noc3/C=C/N(C)C)CC2)cc1 | inconclusive: 29.1 µM [activator, partial curve] | –
18 | CN(C(=O)c1ccc(NC(=O)Cc2ccc(NC(=O)C3CCCN(C(=O)c4ccccc4)C3)cc2)cc1)C1CC1 (stereo unspecified) | – | inconclusive: -83%
19 | O=C(CCc1c[nH]c2ccccc12)Nc1ncccc1O | inconclusive: 13 µM [activator, partial curve, poor fit] | –
20 | CC(=O)n1nc(-c2ccncc2)nc1SCC(=O)Nc1cccc(Cl)c1 | – | inconclusive: 138%
21 | CC(=O)N1CC(C)Sc2ccc(S(=O)(=O)NCc3ccc(F)cc3)cc21 (stereo unspecified) | – | inconclusive: -14.1%
22 | COc1ccc(CSc2ccc(-c3nc4ccccn4c3NCc3ccccc3)cc2OC)cc1 | – | inconclusive: -14.1%
23 | CCCOc1ccc(-c2nn(-c3ccccc3)cc2/C=C2\SC(N)=NC2=O)cc1 | inconclusive: 0.58 µM [activator, full curve, poor fit] | –

Single values from above:
Value for `CN(C(=O)c1ccc(NC(=O)Cc2ccc(NC(=O)C3CCCN(C(=O)c4ccccc4)C3)cc2)cc1)C1CC1` (stereo unspecified) under lipid storage change, negative = inhibition: inconclusive: -83%
Value for `Cc1ccc(S(=O)(=O)NC(=O)NCCCN2CCOCC2)cc1` under lipid storage change, negative = inhibition: inconclusive: -16.2%

More results follow.

Row | SMILES | Potency | lipid storage change, negative = inhibition
24 | CCN(CC)S(=O)(=O)c1ccc2c(c1)N(CC(=O)N1CCN(c3ccc(F)cc3)CC1)C(=O)CO2 | – | inconclusive: 29.9%
25 | COC(=O)C1(c2ccccc2)NC(c2ccc(O)cc2)C2C(=O)N(c3ccc4c(c3)OCO4)C(=O)C21 (stereo unspecified) | – | inconclusive: 3.8%
26 | OCCN1CCN(c2ncnc3nc[nH]c23)CC1 | – | inconclusive: -17%
27 | N#CC1=C(N)Oc2ccc3ccc(O)cc3c2C1c1cccnc1 (stereo unspecified) | – | inconclusive: -0.203%
28 | CCCc1cc(NCCCn2ccnc2)n2nc(C)c(-c3ccccc3)c2n1 | – | inconclusive: -25.9%
29 | COc1cc2cc(CN(Cc3cccs3)C(=S)Nc3ccc(C)cc3)c(=O)[nH]c2cc1OC | inconclusive: 0.082 µM [rising, full curve, poor fit] | –
30 | COc1cccc(NC(=S)Nc2cccc3ccccc23)c1 | – | inconclusive: 53.1% [cytotoxic]
31 | O=C(COc1ccc(NC(=O)c2cccs2)cc1)c1ccc(F)cc1 | – | inconclusive: 5.93%
32 | CNc1ccc(Br)cc(C(=O)/C=C/c2ccc(Cl)cc2Cl)c1=O | inconclusive: 5.17 µM [cytotoxic, full curve] | –
33 | CCCOc1ccc(NC(=O)CC2C(=O)N(C)C(=S)N2Cc2ccc3c(c2)OCO3)cc1 (stereo unspecified) | inconclusive: 0.164 µM [activator, full curve] | –
34 | COC(=O)C1=C(C)N(Cc2ccccc2)C(=NCCc2cccnc2)N[C@H]1c1ccccc1 | inconclusive: 1.46 µM [falling, full curve, poor fit] | inconclusive: -30.2%
35 | O=C(Nc1cccnc1Cl)C1CCCN(c2ncnc3c2nc2n3CCCCC2)C1 (stereo unspecified) | inconclusive: 29.1 µM [falling, single point] | –
36 | CCOC(=O)c1cc(-c2ccccc2)n(CC(=O)Nc2cc(OC)cc(OC)c2)c1C | – | inconclusive: 18.4%
37 | CCC(Oc1ccc(C)cc1)C(=O)Nc1ccc(S(=O)(=O)Nc2cc(C)on2)cc1 (stereo unspecified) | inconclusive: 0.13 µM [activator, full curve, poor fit] | –
38 | CCCC(=O)Nc1ccc(-c2nc3cc(C)ccc3o2)cc1 | inconclusive: 5.8 µM [activator, partial curve] | –
39 | CC(=O)/C=C\c1ccccc1OC(=O)c1cc2ccccc2oc1=O | – | inactive
40 | CC(C)c1nn2c(=O)cc(COc3cccc(NC(=O)c4ccco4)c3)nc2s1 | inconclusive: 0.517 µM [falling, full curve, poor fit] | –
41 | CC1CCN(c2ccc(-c3ccc(NC(=O)c4ccco4)cc3)nn2)CC1 | – | inconclusive: 29.2%
42 | Cc1ccc(C(=O)NNC(=O)c2ccoc2C)s1 | – | inconclusive
43 | O=C(Nc1ccccc1)OCc1cc(-c2ccccc2Cl)on1 | – | inconclusive: -12.4%
44 | O=C(Nc1ccc(N2CCCCCC2)cc1)c1ccc[nH]1 | inconclusive: 0.58 µM [falling, single point] | –
45 | CC1CC(C)CN(S(=O)(=O)N2CCC(C(=O)NCc3ccco3)CC2)C1 (stereo unspecified) | – | inconclusive: -0.895%

Entries of single compounds, looked up by structure. Values in the order: Potency | lipid storage change, negative = inhibition
O=C(COc1ccc(NC(=O)c2cccs2)cc1)c1ccc(F)cc1 as listed: – | inconclusive: 5.93%
CC1CCN(c2ccc(-c3ccc(NC(=O)c4ccco4)cc3)nn2)CC1 as listed: – | inconclusive: 29.2%
